Results are given in words; binding and its absence hold for the method and conditions named. Some entries that bind do so weakly or less than the wild type.
Target: human PSMA (human) (UniProt Q04609)
Assay: relative to PSMA.2; uTCE with CD3.23

The chains behind the UniProt entries cited, without tags or fusion partners. Residues count along the entry.
UniProt Q04609, residues 44-750: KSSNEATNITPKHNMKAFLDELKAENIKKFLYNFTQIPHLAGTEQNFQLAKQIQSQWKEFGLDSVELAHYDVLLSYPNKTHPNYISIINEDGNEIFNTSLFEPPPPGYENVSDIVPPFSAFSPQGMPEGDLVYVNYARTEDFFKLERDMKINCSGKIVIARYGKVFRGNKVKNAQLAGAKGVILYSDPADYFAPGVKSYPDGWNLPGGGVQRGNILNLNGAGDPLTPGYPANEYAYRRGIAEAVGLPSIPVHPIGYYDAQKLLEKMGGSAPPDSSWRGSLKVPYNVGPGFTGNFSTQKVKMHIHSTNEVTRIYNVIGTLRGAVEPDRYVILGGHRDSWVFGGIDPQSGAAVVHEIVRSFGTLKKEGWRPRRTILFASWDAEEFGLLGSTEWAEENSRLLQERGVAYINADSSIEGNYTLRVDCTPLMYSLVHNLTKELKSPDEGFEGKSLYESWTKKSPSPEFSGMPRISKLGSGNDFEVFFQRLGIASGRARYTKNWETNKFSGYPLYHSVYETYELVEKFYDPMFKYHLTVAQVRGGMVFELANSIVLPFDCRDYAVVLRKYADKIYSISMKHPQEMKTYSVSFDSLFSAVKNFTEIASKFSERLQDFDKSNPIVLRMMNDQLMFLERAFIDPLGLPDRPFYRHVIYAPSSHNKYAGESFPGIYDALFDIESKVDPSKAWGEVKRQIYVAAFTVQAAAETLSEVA

- binding: binds
B1: AC2717 (PSMA.5 with CD3.23) (bispecific antibody, V domains shown)
VHH: QVQLVESGGGVVQPGRSLRLSCAASGRTFGIYVMGWVRQAPGKEREFVAAISWSGSNRLVSDSVKGRFTISRDNSKNTLYLQMNSLRAEDTAVYYCAASNRLYGRTWYDFNESDYWGQGTQVTVSS
VL: ELVVTQEPSLTVSPGGTVTLTCRSSNGAVTSSNYANWVQQKPGQAPRGLIGGTNKRAPGTPARFSGSLLGGKAALTLSGVQPEDEAVYYCALWYPNLWVFGGGTKLTVL
VH: EVQLLESGGGIVQPGGSLKLSCAASGFTFNTYAMNWVRQAPGKGLEWVARIRSKYNNYATYYADSVKDRFTISRDDSKNTVYLQMNNLKTEDTAVYYCVRHENFGNSYVSWFAHWGQGTLVTVSS
